Data as given in PMC5663849.
These are yes or no findings as the source states them, for the method shown. Binding seen in cells or lysates may run through a third protein.

Sequences of proteins named here, by UniProt entry; tags and fusion partners are left off. Residues count along the entry.
UniProt P20491, residues 19-86: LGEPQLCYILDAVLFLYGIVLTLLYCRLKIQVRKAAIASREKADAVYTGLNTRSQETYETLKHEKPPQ

Target: FcεRI γ-chain (mouse (endogenous in BMDCs)) (UniProt P20491)
Assay: co-IP; WT mouse BMDCs treated with curdlan or dZym (50 µg/mL), harvested at indicated time points; lysates precleared with protein A/G beads (4°C, 2 h), incubated with anti-FcRγ Ab at 4°C for 16 h, protein A/G beads 2 h; SDS-PAGE and Western blot for SHP-1, SHP-2, SHIP-1, PTEN

binding: no binding
B1: SH2 domain-containing inositol 5′-phosphatase-1 (enzyme, UniProt Q9ES52 1-1191)
chain: MPAMVPGWNHGNITRSKAEELLSRAGKDGSFLVRASESIPRAYALCVLFRNCVYTYRILPNEDDKFTVQASEGVPMRFFTKLDQLIDFYKKENMGLVTHLQYPVPLEEEDAIDEAEEDTVESVMSPPELPPRNIPMSAGPSEAKDLPLATENPRAPEVTRLSLSETLFQRLQSMDTSGLPEEHLKAIQDYLSTQLLLDSDFLKTGSSNLPHLKKLMSLLCKELHGEVIRTLPSLESLQRLFDQQLSPGLRPRPQVPGEASPITMVAKLSQLTSLLSSIEDKVKSLLHEGSESTNRRSLIPPVTFEVKSESLGIPQKMHLKVDVESGKLIVKKSKDGSEDKFYSHKKILQLIKSQKFLNKLVILVETEKEKILRKEYVFADSKKREGFCQLLQQMKNKHSEQPEPDMITIFIGTWNMGNAPPPKKITSWFLSKGQGKTRDDSADYIPHDIYVIGTQEDPLGEKEWLELLRHSLQEVTSMTFKTVAIHTLWNIRIVVLAKPEHENRISHICTDNVKTGIANTLGNKGAVGVSFMFNGTSLGFVNSHLTSGSEKKLRRNQNYMNILRFLALGDKKLSPFNITHRFTHLFWLGDLNYRVELPTWEAEAIIQKIKQQQYSDLLAHDQLLLERKDQKVFLHFEEEEITFAPTYRFERLTRDKYAYTKQKATGMKYNLPSWCDRVLWKSYPLVHVVCQSYGSTSDIMTSDHSPVFATFEAGVTSQFVSKNGPGTVDSQGQIEFLACYATLKTKSQTKFYLEFHSSCLESFVKSQEGENEEGSEGELVVRFGETLPKLKPIISDPEYLLDQHILISIKSSDSDESYGEGCIALRLETTEAQHPIYTPLTHHGEMTGHFRGEIKLQTSQGKMREKLYDFVKTERDESSGMKCLKNLTSHDPMRQWEPSGRVPACGVSSLNEMINPNYIGMGPFGQPLHGKSTLSPDQQLTAWSYDQLPKDSSLGPGRGEGPPTPPSQPPLSPKKFSSSTANRGPCPRVQEARPGDLGKVEALLQEDLLLTKPEMFENPLYGSVSSFPKLVPRKEQESPKMLRKEPPPCPDPGISSPSIVLPKAQEVESVKGTSKQAPVPVLGPTPRIRSFTCSSSAEGRMTSGDKSQGKPKASASSQAPVPVKRPVKPSRSEMSQQTTPIPAPRPPLPVKSPAVLQLQHSKGRDYRDNTELPHHGKHRQEEGLLGRTAMQ
